Measured values as given in PubChem BioAssay AID2685 (National Center for Advancing Translational Sciences (NCATS), 2010).
The list shows a part of the results. These are further read-outs of the screen, such as a control signal, another cell line or another target. No call is given for them. Compounds called inactive in the main read-out are mostly missing here. Potencies come from curve fits of mixed quality, noted in brackets.

Experiment: qHTS Assay for Lipid Storage Modulators in Drosophila S3 Cells;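 on cell number change: cells counted by Cell Tracker Red CMTPX staining in the red channel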
Conditions: BODIPY lipid droplet fluorescence, 18-24 h; for cell number change: measured here: cell count max response, cells fed with added oleic acid
Outline: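 Drosophila S3 cells loaded with oleic acid (400 uM, as added) and compounds at several concentrations; lipid droplets imaged by 488-nm laser-scanning cytometry, 500–530 nm intensity and object ratio to cell channel. Percent activity normalized to 20 uM Triacsin C.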

[1] = measured here: lipid fluorescence (Fed channel) AC50, cells fed with added oleic acid
[2] = measured here: cell number channel AC50, cells fed with added oleic acid

With `COc1ccc(NC(=O)COc2ccc(CNCCCN3CCOCC3)cc2OC)cc1` the cell number change was -17.4%.

For `COCCNC(=O)Cc1c(C)c2cc3c(cc2oc1=O)OC(C)(C)CC3`, the cell number change was -22.9% and the AC50 [1] was 29.1 µM [falling, single point].

For `CC1CCCN(CC(=O)Nc2ccc(S(=O)(=O)N3CCCCCC3)cc2)C1` (stereo not given), the cell number change was 7.01%.

`OCCN1CCN(CC(O)COCC2COc3ccccc3O2)CC1` (stereo not given) gave a cell number change of -28.1%.

With `O=C(CN1CCN(c2ccccc2O)CC1)NC(=O)NC1CCCC1` the cell number change was -6.64% and the AC50 [1] was 0.164 µM [falling, full curve, poor fit].

For `CC(C)CCN1C(=O)C2(OCCCO2)c2cc(Cl)ccc21`, the cell number change was 25.4% and the AC50 [1] was 29.1 µM [rising, single point].

In the case of `Cc1oc(CC(C)C)c(CN)c1C(=O)O`, the cell number change is reported as -25.9% and the AC50 [1] is reported as 0.517 µM [falling, full curve].

In the case of `O=c1[nH][nH]c(C(F)(F)F)c1C=NCc1ccc(Cl)cc1`, the cell number change is reported as 23.6% and the AC50 [1] is reported as 16.4 µM [rising, partial curve].

With `COc1ccc(-n2c(Cc3cccn3C)nnc2SCC(=O)NC2CCCC2)cc1` the AC50 [1] was 0.00517 µM [falling, full curve, poor fit].

`CCCCN(C(=O)CSc1cc(C)c2ccc(OC)cc2n1)c1c(N)n(Cc2ccccc2)c(=O)[nH]c1=O` showed a cell number change of 17.2%.

For `O=C(c1ccccc1)C(c1ccccc1)c1ccccc1`, the cell number change was -48.4%, the AC50 [2] was 1.46 µM [falling, partial curve, poor fit] and the AC50 [1] was 0.00517 µM [falling, full curve, poor fit].

In the case of `CCCCOc1ccc(C(=O)CCN2CCCCC2)cc1`, the cell number change is reported as -19.2% and the AC50 [1] is reported as 5.8 µM [falling, partial curve].

For `COc1ccc(N/N=C(/C#N)S(=O)(=O)C(C)(C)C)cc1`, the AC50 [1] was 5.17 µM [rising, single point].

In the case of `CCCc1ccc(OCc2ccc(C(=O)N/N=C/c3cccc([N+](=O)[O-])c3)o2)c(OC)c1`, the cell number change is reported as -33.5% and the AC50 [2] is reported as 4.61 µM [falling, full curve, poor fit].

In the case of `COc1ccc(NC(=O)C2CCN(c3cnccn3)CC2)cc1OC`, the cell number change is reported as -2.92% and the AC50 [1] is reported as 0.13 µM [rising, full curve, poor fit].

In the case of `CCC(=O)N1CCN(CCN=CC2=C(O)CC(c3cccs3)CC2=O)CC1` (stereo not given), the cell number change is reported as -11.8% and the AC50 [1] is reported as 0.206 µM [falling, full curve, poor fit].

With `O=C(N/N=C/c1ccccc1OC(F)F)NC1CCCCC1` the cell number change was -12% and the AC50 [1] was 0.00461 µM [rising, full curve, poor fit].

For `Cc1ccc(C(=O)NNC(=O)c2ccc(S(=O)(=O)N(C)c3ccccc3)cc2)cc1`, the cell number change was 18.1% and the AC50 [1] was 4.11 µM [rising, partial curve, poor fit].

In the case of `COC(=O)C1=C(C)NC(=O)C1(Nc1ccc(Cl)cn1)C(F)(F)F` (stereo not given), the cell number change is reported as 11.6% and the AC50 [2] is reported as 1.46 µM [falling, partial curve].

`CC1CCN(CCc2nc3cc(NC(=O)COc4ccccc4)ccc3n2C)CC1` showed a cell number change of 8.02%.

With `COc1cc(-c2nnc(-c3ccco3)o2)ccc1OCc1ccccc1` the cell number change was -22.3% and the AC50 [1] was 29.1 µM [falling, single point].

Molecule `Cc1c(C(=O)OCC(=O)NC2CC2)oc2ccc(Br)cc12` has a cell number change of 15.7%.

For `CC1CC(C)CN(CC(=O)Nc2ccc(S(N)(=O)=O)cc2)C1` (stereo not given), the cell number change was -88.6% and the AC50 [2] was 1.84 µM [falling, partial curve].

In the case of `Cc1ccc(C(=O)N2c3ccccc3N(Cc3ccccc3)C(=O)C2(C)C)cc1`, the cell number change is reported as 50.7%, the AC50 [2] is reported as 16.4 µM [rising, single point] and the AC50 [1] is reported as 5.8 µM [rising, single point].

With `CSc1ccc(C(=O)C2CCCN(C(=O)c3nn(C)c(=O)c4ccccc34)C2)cc1` (stereo not given) the cell number change was -18.2%.

In the case of `Cc1cc2ncn(/N=C/c3ccc4c(c3)OCO4)c2cc1C`, the AC50 [1] is reported as 20.6 µM [falling, single point].

In the case of `O=C(Nc1ccc(OC(F)(F)F)cc1)c1ccc2ccccc2n1`, the AC50 [1] is reported as 29.1 µM [rising, single point].

With `CCCCNC(=O)c1cc2cc(CC)ccc2[nH]1` the cell number change was 18.1% and the AC50 [1] was 5.8 µM [rising, full curve, poor fit].

For `Cc1cccc(C(=O)Nc2ccc(C(=O)N/N=C/c3ccc4c(c3)OCO4)cc2)c1`, the cell number change was 53% and the AC50 [2] was 20.6 µM [rising, single point].

In the case of `C#CC(CC)(CC)NC(=O)Nc1ccccc1C(=O)OC`, the AC50 [2] is reported as 3.26 µM [rising, single point].

In the case of `O=C1CC(SC(=NCc2ccc3c(c2)OCO3)Nc2ccccc2)C(=O)N1c1ccccc1` (stereo not given), the cell number change is reported as 84.6%, the AC50 [2] is reported as 5.8 µM [rising, full curve] and the AC50 [1] is reported as 2.31 µM [rising, partial curve].

For `O=C(N/N=C/c1c[nH]c2ccc(Br)cc12)c1ccccn1`, the cell number change was 6.12%, the AC50 [2] was 6.51 µM [rising, single point] and the AC50 [1] was 6.51 µM [rising, partial curve, poor fit].

For `Cc1ccc(-n2ncc3c2CCCC3NC(=O)CCc2cnn(C)c2)cc1C` (stereo not given), the cell number change was -12.1% and the AC50 [1] was 25.9 µM [falling, single point].

For `Cc1nn(Cc2ccc(F)cc2)c2sc(C(=O)Nc3nccs3)cc12`, the cell number change was -15% and the AC50 [1] was 2.06 µM [falling, partial curve, poor fit].

In the case of `COC(C(=O)N/N=C(\C)CC(=O)Nc1ccc(Cl)cc1C)c1ccccc1` (stereo not given), the cell number change is reported as 8.23% and the AC50 [1] is reported as 1.3 µM [rising, partial curve].

For `CCC(=O)OCCNc1cc(Sc2nccn2C)c2nonc2c1[N+](=O)[O-]`, the cell number change was -59.3%, the AC50 [2] was 3.66 µM [falling, full curve] and the AC50 [1] was 5.17 µM [falling, full curve].

With `CCOc1cc(CNc2ncnc3nc[nH]c23)ccc1OC` the cell number change was 3.88% and the AC50 [1] was 3.66 µM [rising, single point].

With `C=CCNc1cc(C(F)(F)F)nc(-c2ccccn2)n1` the cell number change was 17% and the AC50 [1] was 29.1 µM [rising, single point].

In the case of `CCN(CC)c1ccc(/C=N/N2CCN(Cc3ccccc3Cl)CC2)c(O)c1`, the cell number change is reported as -23.4% and the AC50 [1] is reported as 18.4 µM [falling, single point].

In the case of `O=[N+]([O-])c1ccccc1S(=O)(=O)N1CCCc2ccccc21`, the cell number change is reported as -8.21% and the AC50 [1] is reported as 29.1 µM [falling, single point].

In the case of `CCOc1cccc2cc(C(=O)Nc3ccccc3-c3ccccc3)c(=O)oc12`, the cell number change is reported as 10.5% and the AC50 [2] is reported as 6.51 µM [rising, single point].

In the case of `CCOc1ccc(S(=O)(=O)N(CC(=O)N2CCc3ccccc32)Cc2ccco2)cc1`, the cell number change is reported as -20.7% and the AC50 [1] is reported as 0.00461 µM [rising, full curve].

With `O=C(O)CSCC(=O)N1CCCN(c2nccc(C(F)(F)F)n2)CC1` the cell number change was -18.4% and the AC50 [1] was 5.8 µM [falling, full curve].

In the case of `COc1ccc(C(=O)Nc2ccc(C(=O)N3CCCCC3)cc2)cc1OC`, the cell number change is reported as 42.8%, the AC50 [2] is reported as 29.1 µM [rising, partial curve, poor fit] and the AC50 [1] is reported as 6.51 µM [falling, single point].

In the case of `CC(NC(=O)c1ccc2c(=O)n3c(nc2c1)CCCCC3)c1ccccc1` (stereo not given), the cell number change is reported as 13.7% and the AC50 [1] is reported as 16.4 µM [falling, partial curve, poor fit].

For `CCCCn1c(SCC(=O)N2CCCC2)nc2c1c(=O)n(C)c(=O)n2C`, the cell number change was 5.89% and the AC50 [1] was 13 µM [rising, single point].

In the case of `COc1cccc(CN(C)C(=O)c2cccc(NC(=O)CC3SC(N4CCCCC4)=NC3=O)c2)c1OC` (stereo not given), the cell number change is reported as 32.4%, the AC50 [2] is reported as 16.4 µM [rising, partial curve] and the AC50 [1] is reported as 25.9 µM [rising, partial curve].

In the case of `COc1ccc(C(=O)OCC(=O)NC(Cc2ccccc2)C(C)=O)cc1S(=O)(=O)N1CCCC1` (stereo not given), the cell number change is reported as -33.7% and the AC50 [2] is reported as 29.1 µM [falling, single point].

In the case of `COc1ccccc1NC(=S)NCc1ccc(F)cc1`, the AC50 [1] is reported as 29.1 µM [falling, single point].

For `O=C1CCCC2=C1C1(CCCC1)N=C(Nc1nc3ccccc3s1)N2`, the cell number change was 1.78%, the AC50 [2] was 0.00461 µM [rising, full curve, poor fit] and the AC50 [1] was 1.16 µM [rising, partial curve, poor fit].

In the case of `COC(=O)C1=C(C)N(c2cc(Cl)cc(Cl)c2)C(=O)C1`, the cell number change is reported as 2.39% and the AC50 [1] is reported as 0.13 µM [rising, full curve, poor fit].

With `Cc1sc(NC(=O)CSc2nnc(-c3ccccc3)o2)c(C#N)c1C` the cell number change was -15.5% and the AC50 [1] was 0.164 µM [rising, partial curve].

In the case of `COc1ccc(CCNC(=O)CSc2nnc(-c3ccccc3)c3ccccc23)cc1OC`, the cell number change is reported as -39.2%, the AC50 [2] is reported as 14.6 µM [falling, single point] and the AC50 [1] is reported as 10.3 µM [falling, partial curve].

In the case of `O=C(N/N=C/c1coc2ccccc2c1=O)c1cc(Br)c(O)c(Br)c1`, the cell number change is reported as 19.8%, the AC50 [2] is reported as 0.731 µM [rising, partial curve, poor fit] and the AC50 [1] is reported as 29.1 µM [rising, single point].

For `COc1ccc(OC2C(=O)N(c3ccc(C)c(C)c3)C2c2ccc(OC)c(OC)c2)cc1` (stereo not given), the cell number change was -24.8%.

In the case of `O=C(COC(=O)c1cnccn1)NCc1ccc2c(c1)OCO2`, the AC50 [1] is reported as 0.651 µM [falling, full curve].

In the case of `CCC(Sc1ccc(Cl)cc1)C(=O)Nc1nnc(-c2cccc([N+](=O)[O-])c2)s1` (stereo not given), the cell number change is reported as 11.8%.

For `CCNc1nc(SC(C)C(=O)Nc2ccccc2)nc(N(C)C)n1` (stereo not given), the cell number change was -51.5%, the AC50 [2] was 14.6 µM [falling, partial curve] and the AC50 [1] was 8.2 µM [falling, partial curve].

With `CC1CCCCN1C(=O)C12CCC(C)(C(=O)C1)C2(C)C` (stereo not given) the cell number change was -20.7% and the AC50 [1] was 0.517 µM [falling, full curve].

In the case of `COc1ccc(Cl)cc1NC(=O)Cn1nc(-c2ccc(C)cc2)n(C)c1=S`, the cell number change is reported as 3.72% and the AC50 [1] is reported as 25.9 µM [rising, single point].
